PubChem BioAssay AID504774 – Drosophila RNAi Screening Center, 2011
The deposit covers about 23,000 reagents; below is an unselected part of those that have a named target and a result. 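Values are quantile-normalised luminescence on an arbitrary scale; higher means more cells surviving MMS.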 Names joined by + are all predicted targets of the reagent.

Purpose: 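Knock-downs that shift viability of MMS-exposed cells relative to untreated ones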 (primary screen)
Cell system: Drosophila Kc167 cells
Knock-down reagent: long dsRNA against Drosophila genes, about 0.25 µg dsRNA per well
Duration: about 6 days: 3 days knock-down, then 3 days with or without MMS
Treatment: methyl methanesulphonate 0.004% (w/v) for 3 days after knock-down
Measurement: 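Viability in wells given MMS, read as ATP luminescence, normalised by quantiles plate by plate and averaged across replicates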
Scale: mean viability with MMS and viability with MMS: higher = more surviving cells after MMS

| Gene | amplicon | mean viability with MMS | viability with MMS, replicate 1 | viability with MMS, replicate 2 |
| --- | --- | --- | --- | --- |
| Cpr49Ad (GeneID 36349) | DRSC07284 | 3.54e6 | 4.16e6 | 3.95e6 |
| CG1824 (GeneID 32208) | DRSC19796 | 3.47e6 | 3.88e6 | 3.97e6 |
| CG3191 (GeneID 31209) | DRSC18530 | 3.64e6 | 4.18e6 | 4.05e6 |
| bys (GeneID 31701) | DRSC18748 | 3.52e6 | 3.76e6 | 4.11e6 |
| CG12301 (GeneID 39689) | DRSC09875 | 3.47e6 | 3.87e6 | 3.99e6 |
| vg (GeneID 36421) | DRSC07715 | 3.81e6 | 3.89e6 | 3.90e6 |
| vg (GeneID 36421) | DRSC22669 | 3.41e6 | 3.88e6 | 3.94e6 |
| CG6000 (GeneID 42851) | DRSC15938 | 3.60e6 | 4.14e6 | 4.03e6 |
| ppk9 (GeneID 37498) | DRSC04134 | 3.52e6 | 4.00e6 | 3.99e6 |
| ppk9 (GeneID 37498) | DRSC04135 | 3.59e6 | 4.04e6 | 4.11e6 |
| Alg14 (GeneID 32479) | DRSC19983 | 3.62e6 | 4.15e6 | 4.04e6 |
| Mob4 (GeneID 35576) | DRSC04993 | 3.38e6 | 3.67e6 | 3.51e6 |
| RpS21 (GeneID 33487) | DRSC00833 | 1.40e6 | 3.69e6 | – |
| sick (GeneID 35277) | DRSC02090 | 3.62e6 | 4.14e6 | 4.08e6 |
| sick (GeneID 35277) | DRSC02301 | 3.46e6 | 3.90e6 | 3.92e6 |
| sick (GeneID 35277) | DRSC02302 | 3.48e6 | 3.97e6 | 3.92e6 |
| sick (GeneID 35277) | DRSC02303 | 3.35e6 | 3.76e6 | 3.76e6 |
| sick (GeneID 35277) | DRSC02306 | 3.49e6 | 3.94e6 | 3.98e6 |
| CG17717 (GeneID 31592) | DRSC18130 | 3.55e6 | 3.92e6 | 4.14e6 |

Targets above whose gene name begins with C or c:
| Gene | amplicon | mean viability with MMS | viability with MMS, replicate 1 | viability with MMS, replicate 2 |
| --- | --- | --- | --- | --- |
| Cpr49Ad (GeneID 36349) | DRSC07284 | 3.54e6 | 4.16e6 | 3.95e6 |
| CG1824 (GeneID 32208) | DRSC19796 | 3.47e6 | 3.88e6 | 3.97e6 |
| CG3191 (GeneID 31209) | DRSC18530 | 3.64e6 | 4.18e6 | 4.05e6 |
| CG12301 (GeneID 39689) | DRSC09875 | 3.47e6 | 3.87e6 | 3.99e6 |
| CG6000 (GeneID 42851) | DRSC15938 | 3.60e6 | 4.14e6 | 4.03e6 |
| CG17717 (GeneID 31592) | DRSC18130 | 3.55e6 | 3.92e6 | 4.14e6 |

Further entries:
| Gene | amplicon | mean viability with MMS | viability with MMS, replicate 1 | viability with MMS, replicate 2 |
| --- | --- | --- | --- | --- |
| CG8750 (GeneID 50285) | DRSC11037 | 3.48e6 | 3.82e6 | 4.06e6 |
| CG9643 (GeneID 33504) | DRSC00722 | 3.48e6 | 4.13e6 | 3.77e6 |
| CROT (GeneID 43332) | DRSC14518 | 3.52e6 | 4.00e6 | 4.00e6 |
| CROT (GeneID 43332) | DRSC14519 | 3.55e6 | 4.04e6 | 4.00e6 |
| Chd3 (GeneID 40111) | DRSC11114 | 3.29e6 | 3.78e6 | 3.67e6 |
| CG42827 + CG42828 | DRSC16116 | 3.35e6 | 3.92e6 | 3.93e6 |
| Pgi (GeneID 35886) | DRSC07507 | 3.51e6 | 4.02e6 | 3.92e6 |
| fd3F (retired record) (GeneID 246673) | DRSC17843 | 2.83e6 | 3.46e6 | 3.38e6 |
| fd3F (retired record) (GeneID 246673) | DRSC23032 | 3.60e6 | 4.21e6 | 3.96e6 |
| vari (GeneID 35343) | DRSC03202 | 3.53e6 | 4.03e6 | 3.95e6 |
| CG10562 (GeneID 43066) | DRSC14257 | 3.44e6 | 3.89e6 | 3.93e6 |
| Fatp3 (GeneID 37887) | DRSC04366 | 3.59e6 | 3.96e6 | 4.19e6 |
| flap (GeneID 37519) | DRSC03918 | 3.41e6 | 3.85e6 | 3.91e6 |
| flap (GeneID 37519) | DRSC04087 | 3.48e6 | 3.97e6 | 3.77e6 |
| GCC185 (GeneID 41459) | DRSC15493 | 3.37e6 | 3.83e6 | 3.86e6 |
| CG15027 (GeneID 32440) | DRSC19608 | 3.48e6 | 3.90e6 | 3.98e6 |
| GLaz (GeneID 36447) | DRSC07431 | 3.45e6 | 3.82e6 | 4.06e6 |
| CG3330 (GeneID 43296) | DRSC15477 | 3.57e6 | 4.01e6 | 4.09e6 |
| CG6044 (GeneID 37558) | DRSC04522 | 3.59e6 | 4.04e6 | 4.10e6 |
| CG7766 (GeneID 31839) | DRSC18424 | 3.38e6 | 4.12e6 | 4.24e6 |
| CG13051 (GeneID 5740583) | DRSC09932 | 3.51e6 | 3.96e6 | 4.00e6 |
| CG7600 (GeneID 39267) | DRSC09681 | 3.60e6 | 4.03e6 | 4.13e6 |
| CG14417 (GeneID 31274) | DRSC18638 | 3.53e6 | 3.87e6 | 4.13e6 |
| CG12419 (retired record) (GeneID 41218) | DRSC14513 | 3.48e6 | 3.98e6 | 3.93e6 |
| BORCS5 (GeneID 32145) | DRSC19427 | 3.66e6 | 3.91e6 | 4.30e6 |
| Mkp + CG34140 | DRSC08585 | 3.47e6 | 3.91e6 | 3.95e6 |
| CG7049 (GeneID 38022) | DRSC08587 | 3.56e6 | 4.02e6 | 4.04e6 |
